According to the supplement of paper PMC10849652:
Some of the results follow.

Protein sequences, listed by entry. Tags and fused reporters are not part of them. Lines headed by an entry give the natural chain unless they say otherwise; changes in a name come on top.
UniProt P57081: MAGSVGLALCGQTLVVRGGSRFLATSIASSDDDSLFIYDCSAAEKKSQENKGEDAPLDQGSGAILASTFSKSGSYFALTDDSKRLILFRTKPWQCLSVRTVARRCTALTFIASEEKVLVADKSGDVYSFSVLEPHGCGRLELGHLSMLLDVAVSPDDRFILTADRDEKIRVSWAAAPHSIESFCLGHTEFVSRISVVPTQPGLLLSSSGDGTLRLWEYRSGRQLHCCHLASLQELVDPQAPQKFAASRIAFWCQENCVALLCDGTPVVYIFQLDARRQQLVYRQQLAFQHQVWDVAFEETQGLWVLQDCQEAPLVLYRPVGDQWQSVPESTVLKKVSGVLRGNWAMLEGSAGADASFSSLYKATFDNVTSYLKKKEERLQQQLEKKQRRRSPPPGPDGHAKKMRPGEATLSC
UniProt O00258: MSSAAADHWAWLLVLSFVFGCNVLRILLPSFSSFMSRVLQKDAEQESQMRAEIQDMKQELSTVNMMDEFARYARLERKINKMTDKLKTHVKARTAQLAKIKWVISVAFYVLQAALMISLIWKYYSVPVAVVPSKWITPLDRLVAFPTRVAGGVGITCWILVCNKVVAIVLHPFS
UniProt Q7Z5U6: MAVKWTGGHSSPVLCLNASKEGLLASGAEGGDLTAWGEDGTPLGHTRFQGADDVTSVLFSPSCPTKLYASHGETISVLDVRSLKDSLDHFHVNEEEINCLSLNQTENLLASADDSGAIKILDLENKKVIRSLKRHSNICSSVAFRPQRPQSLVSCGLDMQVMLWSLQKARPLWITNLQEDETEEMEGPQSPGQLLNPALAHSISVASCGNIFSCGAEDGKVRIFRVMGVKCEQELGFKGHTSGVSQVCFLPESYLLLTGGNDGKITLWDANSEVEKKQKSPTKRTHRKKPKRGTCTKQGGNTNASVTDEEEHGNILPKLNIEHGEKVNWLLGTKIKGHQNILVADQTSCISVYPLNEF
UniProt Q9H9C1: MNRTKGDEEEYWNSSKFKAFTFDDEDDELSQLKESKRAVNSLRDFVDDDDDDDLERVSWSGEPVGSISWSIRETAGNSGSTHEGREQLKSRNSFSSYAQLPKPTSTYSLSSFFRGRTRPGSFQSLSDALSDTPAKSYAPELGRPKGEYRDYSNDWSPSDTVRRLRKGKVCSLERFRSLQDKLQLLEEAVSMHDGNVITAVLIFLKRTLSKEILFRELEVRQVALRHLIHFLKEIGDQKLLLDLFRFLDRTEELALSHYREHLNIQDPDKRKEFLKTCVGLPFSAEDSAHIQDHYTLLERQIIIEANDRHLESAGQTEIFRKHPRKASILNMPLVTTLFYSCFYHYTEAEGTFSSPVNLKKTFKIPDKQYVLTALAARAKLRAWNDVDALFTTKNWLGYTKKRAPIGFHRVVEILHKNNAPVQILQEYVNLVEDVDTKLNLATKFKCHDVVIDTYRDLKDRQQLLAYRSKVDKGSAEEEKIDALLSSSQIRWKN
UniProt Q641Q2, whole entry, looked up: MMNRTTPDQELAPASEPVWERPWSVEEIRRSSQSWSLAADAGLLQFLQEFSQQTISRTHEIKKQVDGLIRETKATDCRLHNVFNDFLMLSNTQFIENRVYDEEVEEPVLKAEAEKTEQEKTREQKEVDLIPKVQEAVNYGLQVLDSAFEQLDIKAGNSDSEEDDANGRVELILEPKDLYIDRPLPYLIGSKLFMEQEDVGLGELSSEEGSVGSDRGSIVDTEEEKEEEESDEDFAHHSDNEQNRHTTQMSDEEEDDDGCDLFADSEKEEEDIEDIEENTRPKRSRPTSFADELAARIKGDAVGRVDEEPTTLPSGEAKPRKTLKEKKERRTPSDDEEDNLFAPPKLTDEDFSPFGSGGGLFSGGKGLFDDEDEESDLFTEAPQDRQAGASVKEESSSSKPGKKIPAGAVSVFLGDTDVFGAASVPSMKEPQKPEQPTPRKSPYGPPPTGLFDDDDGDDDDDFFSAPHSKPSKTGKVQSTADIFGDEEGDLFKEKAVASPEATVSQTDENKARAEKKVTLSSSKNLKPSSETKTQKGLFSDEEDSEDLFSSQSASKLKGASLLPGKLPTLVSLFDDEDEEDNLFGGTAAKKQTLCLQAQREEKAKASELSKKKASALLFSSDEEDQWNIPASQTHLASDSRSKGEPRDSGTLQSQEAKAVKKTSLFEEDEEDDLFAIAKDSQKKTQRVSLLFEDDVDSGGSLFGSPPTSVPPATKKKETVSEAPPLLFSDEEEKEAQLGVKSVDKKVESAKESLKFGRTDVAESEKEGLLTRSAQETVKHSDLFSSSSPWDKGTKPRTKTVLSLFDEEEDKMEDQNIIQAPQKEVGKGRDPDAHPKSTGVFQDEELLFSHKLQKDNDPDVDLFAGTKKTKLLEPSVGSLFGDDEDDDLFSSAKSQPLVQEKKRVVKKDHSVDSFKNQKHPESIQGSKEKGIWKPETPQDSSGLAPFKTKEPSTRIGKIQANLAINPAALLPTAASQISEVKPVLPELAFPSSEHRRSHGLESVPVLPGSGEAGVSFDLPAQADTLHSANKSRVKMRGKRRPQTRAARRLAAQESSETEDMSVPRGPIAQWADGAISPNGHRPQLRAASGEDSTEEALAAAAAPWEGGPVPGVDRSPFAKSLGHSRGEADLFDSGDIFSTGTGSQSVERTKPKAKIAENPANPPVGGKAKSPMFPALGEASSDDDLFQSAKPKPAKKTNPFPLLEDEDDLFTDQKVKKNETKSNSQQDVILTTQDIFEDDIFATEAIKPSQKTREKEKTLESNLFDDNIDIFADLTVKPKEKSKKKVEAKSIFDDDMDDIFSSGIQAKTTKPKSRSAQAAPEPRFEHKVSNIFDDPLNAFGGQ
UniProt Q5JSD2: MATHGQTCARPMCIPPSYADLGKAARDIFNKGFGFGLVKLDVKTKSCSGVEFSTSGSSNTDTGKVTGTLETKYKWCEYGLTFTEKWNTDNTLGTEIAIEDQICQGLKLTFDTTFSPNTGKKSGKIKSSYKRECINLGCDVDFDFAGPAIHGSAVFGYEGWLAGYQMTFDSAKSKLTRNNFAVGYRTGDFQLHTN
UniProt O43516: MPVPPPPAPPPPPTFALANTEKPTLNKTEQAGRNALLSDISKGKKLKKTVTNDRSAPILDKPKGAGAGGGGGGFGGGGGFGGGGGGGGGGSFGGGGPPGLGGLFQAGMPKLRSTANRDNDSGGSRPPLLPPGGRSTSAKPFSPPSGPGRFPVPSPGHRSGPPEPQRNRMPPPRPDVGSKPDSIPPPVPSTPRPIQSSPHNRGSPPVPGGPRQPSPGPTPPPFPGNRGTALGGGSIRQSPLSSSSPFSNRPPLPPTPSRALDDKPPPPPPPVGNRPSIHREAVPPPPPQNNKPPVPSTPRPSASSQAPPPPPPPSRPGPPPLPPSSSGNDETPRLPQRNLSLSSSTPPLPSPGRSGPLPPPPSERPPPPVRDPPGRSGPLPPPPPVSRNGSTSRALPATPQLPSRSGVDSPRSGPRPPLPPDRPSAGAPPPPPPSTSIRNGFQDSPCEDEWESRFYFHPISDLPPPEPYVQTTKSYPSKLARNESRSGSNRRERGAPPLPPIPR
UniProt Q96AX1: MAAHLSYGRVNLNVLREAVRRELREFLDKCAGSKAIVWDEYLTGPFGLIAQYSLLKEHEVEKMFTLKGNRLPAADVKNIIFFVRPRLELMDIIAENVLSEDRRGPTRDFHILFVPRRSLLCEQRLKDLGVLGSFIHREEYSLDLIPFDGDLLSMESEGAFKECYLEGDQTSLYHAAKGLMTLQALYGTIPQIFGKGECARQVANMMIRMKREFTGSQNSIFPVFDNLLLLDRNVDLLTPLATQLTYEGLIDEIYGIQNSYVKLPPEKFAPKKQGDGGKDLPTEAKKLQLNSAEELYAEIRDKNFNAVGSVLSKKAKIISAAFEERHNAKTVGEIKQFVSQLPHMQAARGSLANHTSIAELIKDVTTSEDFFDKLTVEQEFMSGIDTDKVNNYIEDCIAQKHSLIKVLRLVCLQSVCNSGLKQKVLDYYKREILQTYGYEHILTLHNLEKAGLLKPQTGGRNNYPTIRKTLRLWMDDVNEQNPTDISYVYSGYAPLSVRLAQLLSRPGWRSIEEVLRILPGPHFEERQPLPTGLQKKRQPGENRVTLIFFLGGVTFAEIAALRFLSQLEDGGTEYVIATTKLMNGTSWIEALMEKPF
UniProt Q96AJ9: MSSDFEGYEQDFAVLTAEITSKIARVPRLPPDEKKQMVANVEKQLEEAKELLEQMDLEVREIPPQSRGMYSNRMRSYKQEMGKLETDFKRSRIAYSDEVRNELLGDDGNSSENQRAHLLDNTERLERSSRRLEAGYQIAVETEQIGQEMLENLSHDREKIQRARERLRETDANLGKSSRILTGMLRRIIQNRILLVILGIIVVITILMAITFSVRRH
UniProt O15213: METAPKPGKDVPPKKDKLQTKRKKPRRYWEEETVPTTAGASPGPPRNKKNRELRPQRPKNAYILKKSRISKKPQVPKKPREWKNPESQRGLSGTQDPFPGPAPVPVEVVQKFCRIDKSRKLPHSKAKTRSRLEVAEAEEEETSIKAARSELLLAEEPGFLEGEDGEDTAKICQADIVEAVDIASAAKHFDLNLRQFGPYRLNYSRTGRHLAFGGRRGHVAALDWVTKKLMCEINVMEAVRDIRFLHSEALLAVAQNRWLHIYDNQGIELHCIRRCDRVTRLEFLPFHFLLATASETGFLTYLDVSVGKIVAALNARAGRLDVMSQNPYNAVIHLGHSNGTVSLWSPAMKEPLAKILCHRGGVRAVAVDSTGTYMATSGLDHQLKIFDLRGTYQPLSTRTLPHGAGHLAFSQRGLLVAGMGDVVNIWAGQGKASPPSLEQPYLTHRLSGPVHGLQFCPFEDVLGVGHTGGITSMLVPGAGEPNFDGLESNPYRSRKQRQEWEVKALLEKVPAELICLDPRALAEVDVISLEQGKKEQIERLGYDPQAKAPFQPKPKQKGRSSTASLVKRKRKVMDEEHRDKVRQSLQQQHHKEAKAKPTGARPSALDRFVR
UniProt O94967: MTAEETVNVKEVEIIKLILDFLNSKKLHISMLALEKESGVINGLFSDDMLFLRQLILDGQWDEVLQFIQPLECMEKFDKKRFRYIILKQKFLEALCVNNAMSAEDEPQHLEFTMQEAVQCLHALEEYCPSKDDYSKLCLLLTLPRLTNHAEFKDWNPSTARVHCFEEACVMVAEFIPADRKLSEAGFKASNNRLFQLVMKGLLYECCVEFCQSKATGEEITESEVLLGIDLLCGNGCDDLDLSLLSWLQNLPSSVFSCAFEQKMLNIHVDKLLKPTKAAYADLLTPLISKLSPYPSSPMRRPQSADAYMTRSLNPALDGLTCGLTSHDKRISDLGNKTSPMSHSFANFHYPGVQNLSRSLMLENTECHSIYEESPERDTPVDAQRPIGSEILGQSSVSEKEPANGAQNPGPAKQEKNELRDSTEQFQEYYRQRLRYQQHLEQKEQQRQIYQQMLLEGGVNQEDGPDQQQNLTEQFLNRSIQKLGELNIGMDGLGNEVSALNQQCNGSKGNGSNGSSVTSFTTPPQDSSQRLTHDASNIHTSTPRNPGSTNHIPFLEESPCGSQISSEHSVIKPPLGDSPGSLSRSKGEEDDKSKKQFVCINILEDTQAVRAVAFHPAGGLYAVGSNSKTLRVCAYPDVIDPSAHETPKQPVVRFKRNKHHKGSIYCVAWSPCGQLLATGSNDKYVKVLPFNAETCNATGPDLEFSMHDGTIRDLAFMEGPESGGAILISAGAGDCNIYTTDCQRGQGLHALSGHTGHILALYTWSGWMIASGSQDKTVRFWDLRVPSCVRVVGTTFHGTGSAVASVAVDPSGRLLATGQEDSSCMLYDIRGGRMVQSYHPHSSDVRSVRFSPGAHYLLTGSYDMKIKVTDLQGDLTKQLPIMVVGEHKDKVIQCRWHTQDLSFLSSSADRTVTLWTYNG
UniProt Q9NX94: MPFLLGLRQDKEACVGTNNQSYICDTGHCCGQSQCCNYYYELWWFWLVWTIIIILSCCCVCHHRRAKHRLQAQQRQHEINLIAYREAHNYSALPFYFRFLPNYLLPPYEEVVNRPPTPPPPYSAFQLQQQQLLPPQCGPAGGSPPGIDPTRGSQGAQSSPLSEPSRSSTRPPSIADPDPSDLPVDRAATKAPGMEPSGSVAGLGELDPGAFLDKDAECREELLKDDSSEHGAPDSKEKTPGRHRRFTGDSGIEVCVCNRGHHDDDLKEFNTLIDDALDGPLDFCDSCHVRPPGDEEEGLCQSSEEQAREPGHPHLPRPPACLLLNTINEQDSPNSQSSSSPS
UniProt Q96P53: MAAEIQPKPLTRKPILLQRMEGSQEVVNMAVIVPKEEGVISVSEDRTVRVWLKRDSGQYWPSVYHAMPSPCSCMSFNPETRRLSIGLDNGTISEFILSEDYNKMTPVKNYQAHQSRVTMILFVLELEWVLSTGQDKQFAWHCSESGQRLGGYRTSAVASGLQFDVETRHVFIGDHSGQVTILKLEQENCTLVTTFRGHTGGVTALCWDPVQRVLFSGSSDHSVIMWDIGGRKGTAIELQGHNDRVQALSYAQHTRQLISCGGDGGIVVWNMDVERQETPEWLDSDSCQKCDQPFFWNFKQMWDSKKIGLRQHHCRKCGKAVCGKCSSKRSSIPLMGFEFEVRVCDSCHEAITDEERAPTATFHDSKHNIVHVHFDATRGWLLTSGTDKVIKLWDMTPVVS

Assays:
Assay in all cases: log2 fold change, soluble protein after heating vs DMSO (PISA); higher = thermal stabilisation; K562 cells, 10 uM, 30 min; active = over 0.2 and 3.5 SD of the protein, either way, in both replicates (recomputed)
[1] = compound: CS(=O)(=O)c1ccc(-c2cnc(N)c(C(=O)Nc3ccccc3)n2)cc1
Summary of the method: (§1)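 Thermal stability values are relative to control samples and come from duplicates. They are expressed as log2 fold changes. For measurement, K562 cells (2×10^6 cells/mL) received 10 μM compound for 30 min, and aliquots were heated for 3 min over 48°C-58°C, pooled, and extracted at 4°C in PBS with 0.5% NP-40. Soluble protein, the supernatant after 21,000xg for 90 min, was quantified by TMTpro 16plex LC-MS/MS with equalised channel sums.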

[2] = compound: C[C@@H]1COCCN1C2=NC(=NC(=C2)C3(CC3)S(=O)(=O)C)C4=C5C=CNC5=CC=C4
Summary of the method: as §1

gandotinib = compound: Cc1cc(Nc2cc(CN3CCOCC3)c3nc(C)c(Cc4ccc(Cl)cc4F)n3n2)n[nH]1 [gandotinib]
Summary of the method: as §1

bafetinib = compound: Cc1ccc(NC(=O)c2ccc(CN3CC[C@H](N(C)C)C3)c(C(F)(F)F)c2)cc1Nc1nccc(-c2cncnc2)n1 [bafetinib]
Summary of the method: as §1

[3] = compound: Cc1cccc(CC(=O)N2CCc3c2ccc(-c2cn(C)c4ncnc(N)c24)c3F)n1
Summary of the method: as §1

crizotinib = compound: C[C@@H](Oc1cc(-c2cnn(C3CCNCC3)c2)cnc1N)c1c(Cl)ccc(F)c1Cl [crizotinib]
Summary of the method: as §1

[4] = compound: C[C@H](C1=CC=C(C=C1)C(=O)NC2=C3C=CNC3=NC=C2)N
Summary of the method: as §1

[5] = compound: Cc1cc(SCc2sc(-c3ccc(C(F)(F)F)cc3)nc2C)ccc1OCC(=O)O
Summary of the method: as §1

doramapimod = compound: Cc1ccc(-n2nc(C(C)(C)C)cc2NC(=O)Nc2ccc(OCCN3CCOCC3)c3ccccc23)cc1 [doramapimod]
Summary of the method: as §1

ispinesib = compound: Cc1ccc(C(=O)N(CCCN)[C@@H](c2nc3cc(Cl)ccc3c(=O)n2Cc2ccccc2)C(C)C)cc1 [ispinesib]
Summary of the method: as §1

nilotinib = compound: Cc1cn(-c2cc(NC(=O)c3ccc(C)c(Nc4nccc(-c5cccnc5)n4)c3)cc(C(F)(F)F)c2)cn1 [nilotinib]
Summary of the method: as §1

[6] = compound: Cc1nc(Nc2n[nH]c3c2CN(C(=O)N[C@H](CN(C)C)c2ccccc2)C3(C)C)c2sccc2n1
Summary of the method: as §1

dasatinib = compound: Cc1nc(Nc2ncc(C(=O)Nc3c(C)cccc3Cl)s2)cc(N2CCN(CCO)CC2)n1 [dasatinib]
Summary of the method: as §1

[7] = compound: Cc1ncc(-c2ccnc(Nc3ccc(S(C)(=O)=O)cc3)n2)n1C(C)C
Summary of the method: as §1

[8] = compound: Cn1cc(-c2ccc3c(c2)CCN3C(=O)Cc2cccc(C(F)(F)F)c2)c2c(N)ncnc21
Summary of the method: as §1

[9] = compound: Cn1cc(-c2ccc3nnc(C(F)(F)c4ccc5ncccc5c4)n3n2)cn1
Summary of the method: as §1

tipifarnib = compound: Cn1cncc1[C@@](N)(c1ccc(Cl)cc1)c1ccc2c(c1)c(-c1cccc(Cl)c1)cc(=O)n2C [tipifarnib]
Summary of the method: as §1

mubritinib = compound: FC(F)(F)c1ccc(/C=C/c2nc(COc3ccc(CCCCn4ccnn4)cc3)co2)cc1 [mubritinib]
Summary of the method: as §1

duvelisib = compound: C[C@H](Nc1ncnc2nc[nH]c12)c1cc2cccc(Cl)c2c(=O)n1-c1ccccc1 [duvelisib]
Summary of the method: as §1

tozasertib = compound: Cc1cc(Nc2cc(N3CCN(C)CC3)nc(Sc3ccc(NC(=O)C4CC4)cc3)n2)n[nH]1 [tozasertib]
Summary of the method: as §1

Measured: log2 fold change

WDR4 isoform 3 (UniProt P57081)
inactive: [1] 0.074 | [2] 0.125 | gandotinib -0.247 | bafetinib 0.125 | [3] 0.057

WRB (UniProt O00258)
inactive: [1] -0.031 | crizotinib 0.057 | [2] 0.036 | [4] -0.028 | gandotinib -0.053 | [5] 0.067 | doramapimod 0.015 | ispinesib 0.029 | bafetinib -0.072 | [3] -0.011 | nilotinib 0.015 | [6] 0.005 | dasatinib 0.031 | [7] -0.036 | [8] -0.011 | [9] 0.089 | tipifarnib 0.024 | mubritinib 0.052

WDR53 (UniProt Q7Z5U6)
inactive: [1] 0.08 | crizotinib -0.037 | [4] 0.225 | duvelisib -0.057 | gandotinib -0.012 | tozasertib -0.021 | [5] -0.052 | doramapimod 0.024 | ispinesib -0.173 | bafetinib -0.059 | [3] -0.009 | dasatinib 0.075 | [8] -0.139 | [9] 0.273 | tipifarnib 0.062 | mubritinib -0.048

VIPAS39 (UniProt Q9H9C1)
inactive: [1] -0.097 | [4] 0.045 | duvelisib -0.229 | tozasertib 0.006 | [5] 0.237 | bafetinib 0.084 | nilotinib -0.16 | [6] -0.225 | dasatinib -0.446 | [7] -0.291 | [8] 0.022 | tipifarnib -0.277 | mubritinib 0.01

WASHC2A (UniProt Q641Q2)
inactive: [1] 0.025 | [2] -0.033 | [4] 0.137 | gandotinib 0.012 | [5] -0.047 | doramapimod 0.062 | ispinesib -0.229 | bafetinib -0.078 | [3] -0.025 | nilotinib 0.002 | [6] -0.039 | dasatinib 0.022 | [7] -0.012 | [8] -0.088 | [9] 0.035 | tipifarnib 0.052 | mubritinib 0.004
active: crizotinib -0.28

VDAC2 (UniProt Q5JSD2)
inactive: [1] 0.006 | [2] -0.063 | gandotinib -0.205 | bafetinib -0.165 | [3] -0.216 | nilotinib -0.065 | [6] 0.046 | [7] -0.001 | tipifarnib 0.298 | mubritinib 0.02

WIPF1 isoform 3 (UniProt O43516)
inactive: [1] 0.005 | crizotinib 0.076 | [4] 0.022 | duvelisib -0.084 | gandotinib 0.098 | tozasertib -0.429 | [5] -0.027 | doramapimod -0.005 | ispinesib -0.01 | bafetinib -0.109 | [3] 0.026 | nilotinib -0.051 | [6] 0.174 | dasatinib 0.138 | [7] -0.202 | [8] 0.056 | [9] 0.036 | tipifarnib -0.157 | mubritinib 0.277

VMA21 (UniProt Q3ZAQ7)
inactive: [1] 0.02 | crizotinib 0.016 | [2] 0.071 | [4] 0.058 | gandotinib 0.021 | doramapimod 0.044 | bafetinib -0.089 | [3] 0.019 | nilotinib 0.071 | [6] 0.002 | [7] -0.033 | [8] 0.088 | tipifarnib -0.071 | mubritinib 0.038

VPS33A (UniProt Q96AX1)
inactive: [1] -0.031 | crizotinib -0.218 | [2] 0.014 | [4] 0.043 | gandotinib -0.091 | [5] 0.049 | doramapimod -0.017 | ispinesib -0.154 | bafetinib -0.066 | [3] 0.091 | nilotinib -0.071 | [6] -0.124 | dasatinib -0.123 | [7] -0.039 | [8] -0.019 | [9] -0.094 | tipifarnib -0.064 | mubritinib 0.098

VTI1A (UniProt Q96AJ9)
inactive: [1] -0.007 | crizotinib -0.072 | [2] 0.038 | [4] -0.022 | gandotinib 0.046 | [5] -0.019 | doramapimod 0.054 | ispinesib -0.237 | bafetinib -0.004 | [3] -0.061 | nilotinib -0.006 | [6] -0.001 | dasatinib 0.004 | [7] -0.005 | [8] -0.001 | [9] 0.01 | tipifarnib 0.081 | mubritinib -0.007

WDR46 (UniProt O15213)
inactive: [1] -0.05 | crizotinib 0.008 | [2] -0.731 | [4] 0.445 | gandotinib 0.27 | [5] 0.032 | doramapimod 0.142 | ispinesib -0.081 | bafetinib 0.251 | [3] -0.026 | nilotinib -0.055 | [6] 0.117 | dasatinib 0.364 | [7] 0.096 | [8] -0.376 | [9] -0.187 | tipifarnib 0.084 | mubritinib -0.093

WDR47 (UniProt O94967)
inactive: [1] -0.024 | crizotinib 0.048 | [2] 0.024 | [4] -0.003 | gandotinib 0.09 | [5] -0.011 | doramapimod -0.034 | ispinesib 0.025 | bafetinib 0.042 | [3] 0.004 | nilotinib 0.02 | [6] -0.046 | dasatinib -0.036 | [7] 0.067 | [8] 0.002 | [9] 0.033 | tipifarnib 0.039 | mubritinib -0.147

2 entries picked at random from the list so far, as already listed:
VTI1A (UniProt Q96AJ9)
inactive: [1] -0.007 | crizotinib -0.072 | [2] 0.038 | [4] -0.022 | gandotinib 0.046 | [5] -0.019 | doramapimod 0.054 | ispinesib -0.237 | bafetinib -0.004 | [3] -0.061 | nilotinib -0.006 | [6] -0.001 | dasatinib 0.004 | [7] -0.005 | [8] -0.001 | [9] 0.01 | tipifarnib 0.081 | mubritinib -0.007

VPS33A (UniProt Q96AX1)
inactive: [1] -0.031 | crizotinib -0.218 | [2] 0.014 | [4] 0.043 | gandotinib -0.091 | [5] 0.049 | doramapimod -0.017 | ispinesib -0.154 | bafetinib -0.066 | [3] 0.091 | nilotinib -0.071 | [6] -0.124 | dasatinib -0.123 | [7] -0.039 | [8] -0.019 | [9] -0.094 | tipifarnib -0.064 | mubritinib 0.098

Continuation:

VKORC1 (UniProt Q9BQB6)
inactive: [1] 0.012 | [4] -0.032 | gandotinib -0.116 | [5] 0.106 | doramapimod 0.033 | ispinesib -0.108 | bafetinib -0.062 | [3] 0.045 | nilotinib -0.008 | [6] 0.013 | dasatinib -0.049 | [7] -0.013 | [8] 0.105 | [9] 0.081 | tipifarnib 0 | mubritinib 0.035
active: crizotinib 0.494

VLDLR (UniProt P98155)
inactive: [1] -0.074 | [2] -0.054 | gandotinib 0.111 | tozasertib -0.034 | [3] -0.057 | nilotinib -0.011 | [6] -0.147 | [7] -0.164 | mubritinib -0.051

VPS13A isoform 4 (UniProt Q96RL7)
inactive: tozasertib 0.007 | ispinesib 0.026 | [9] -0.035 | tipifarnib 0.148

WBP1L isoform 2 (UniProt Q9NX94)
inactive: bafetinib -0.042

WDFY2 (UniProt Q96P53)
inactive: duvelisib -0.222 | tozasertib -0.031 | [5] 0.03 | dasatinib -0.034
